Reference: patent US20180028609A1 (UCL BUSINESS, published 2018)
These are yes or no findings as the source states them, for the method shown.

Molecular target: mouse Lrg1 (mouse)
Experiment: Biacore (SPR): recombinant mouse Lrg1 immobilised on the chip, mAb passed over at 100 nM

binding: no binding (tested: 100 nM)
B1: Antibody 15C4 (mouse monoclonal antibody against human Lrg1) (antibody, V domains shown)
VH: QVQLQQSGDEVVRPGSSVKISCKASGYTFSGYWMNWVKQRPGQGLQWIGQIYPGDGDTNYNGKFKGKATLTADKSSSTAYMQLSTLTSEDSAIYFCARSITTVVLDYWGQGTTLTVSS
VL: DIVLTQSPVSLAVSLGQRATISCRASQSVSTSGYSFMHWYQQKPGQPPKFLIKYASNLESGVPARFSGSGSGTDFTLNIHPVEEEDTATYYCQHSWEMPLTFGAGTKLELK
notes: Murine hybridoma antibody; also called mouse 15C4; mAb 15C4
